Data as given in paper PMC8036560.
No constants are given. Whether binding was seen depends on the method and setting. Binding seen in cells or lysates may run through a third protein. Some results given as binding are weak or reduced against the parent protein; the word gives no strength.

Amino acid sequences for entries named in this document (tags omitted). A change or cut given only in a name is not applied to a line headed by its entry.
UniProt Q9Y618: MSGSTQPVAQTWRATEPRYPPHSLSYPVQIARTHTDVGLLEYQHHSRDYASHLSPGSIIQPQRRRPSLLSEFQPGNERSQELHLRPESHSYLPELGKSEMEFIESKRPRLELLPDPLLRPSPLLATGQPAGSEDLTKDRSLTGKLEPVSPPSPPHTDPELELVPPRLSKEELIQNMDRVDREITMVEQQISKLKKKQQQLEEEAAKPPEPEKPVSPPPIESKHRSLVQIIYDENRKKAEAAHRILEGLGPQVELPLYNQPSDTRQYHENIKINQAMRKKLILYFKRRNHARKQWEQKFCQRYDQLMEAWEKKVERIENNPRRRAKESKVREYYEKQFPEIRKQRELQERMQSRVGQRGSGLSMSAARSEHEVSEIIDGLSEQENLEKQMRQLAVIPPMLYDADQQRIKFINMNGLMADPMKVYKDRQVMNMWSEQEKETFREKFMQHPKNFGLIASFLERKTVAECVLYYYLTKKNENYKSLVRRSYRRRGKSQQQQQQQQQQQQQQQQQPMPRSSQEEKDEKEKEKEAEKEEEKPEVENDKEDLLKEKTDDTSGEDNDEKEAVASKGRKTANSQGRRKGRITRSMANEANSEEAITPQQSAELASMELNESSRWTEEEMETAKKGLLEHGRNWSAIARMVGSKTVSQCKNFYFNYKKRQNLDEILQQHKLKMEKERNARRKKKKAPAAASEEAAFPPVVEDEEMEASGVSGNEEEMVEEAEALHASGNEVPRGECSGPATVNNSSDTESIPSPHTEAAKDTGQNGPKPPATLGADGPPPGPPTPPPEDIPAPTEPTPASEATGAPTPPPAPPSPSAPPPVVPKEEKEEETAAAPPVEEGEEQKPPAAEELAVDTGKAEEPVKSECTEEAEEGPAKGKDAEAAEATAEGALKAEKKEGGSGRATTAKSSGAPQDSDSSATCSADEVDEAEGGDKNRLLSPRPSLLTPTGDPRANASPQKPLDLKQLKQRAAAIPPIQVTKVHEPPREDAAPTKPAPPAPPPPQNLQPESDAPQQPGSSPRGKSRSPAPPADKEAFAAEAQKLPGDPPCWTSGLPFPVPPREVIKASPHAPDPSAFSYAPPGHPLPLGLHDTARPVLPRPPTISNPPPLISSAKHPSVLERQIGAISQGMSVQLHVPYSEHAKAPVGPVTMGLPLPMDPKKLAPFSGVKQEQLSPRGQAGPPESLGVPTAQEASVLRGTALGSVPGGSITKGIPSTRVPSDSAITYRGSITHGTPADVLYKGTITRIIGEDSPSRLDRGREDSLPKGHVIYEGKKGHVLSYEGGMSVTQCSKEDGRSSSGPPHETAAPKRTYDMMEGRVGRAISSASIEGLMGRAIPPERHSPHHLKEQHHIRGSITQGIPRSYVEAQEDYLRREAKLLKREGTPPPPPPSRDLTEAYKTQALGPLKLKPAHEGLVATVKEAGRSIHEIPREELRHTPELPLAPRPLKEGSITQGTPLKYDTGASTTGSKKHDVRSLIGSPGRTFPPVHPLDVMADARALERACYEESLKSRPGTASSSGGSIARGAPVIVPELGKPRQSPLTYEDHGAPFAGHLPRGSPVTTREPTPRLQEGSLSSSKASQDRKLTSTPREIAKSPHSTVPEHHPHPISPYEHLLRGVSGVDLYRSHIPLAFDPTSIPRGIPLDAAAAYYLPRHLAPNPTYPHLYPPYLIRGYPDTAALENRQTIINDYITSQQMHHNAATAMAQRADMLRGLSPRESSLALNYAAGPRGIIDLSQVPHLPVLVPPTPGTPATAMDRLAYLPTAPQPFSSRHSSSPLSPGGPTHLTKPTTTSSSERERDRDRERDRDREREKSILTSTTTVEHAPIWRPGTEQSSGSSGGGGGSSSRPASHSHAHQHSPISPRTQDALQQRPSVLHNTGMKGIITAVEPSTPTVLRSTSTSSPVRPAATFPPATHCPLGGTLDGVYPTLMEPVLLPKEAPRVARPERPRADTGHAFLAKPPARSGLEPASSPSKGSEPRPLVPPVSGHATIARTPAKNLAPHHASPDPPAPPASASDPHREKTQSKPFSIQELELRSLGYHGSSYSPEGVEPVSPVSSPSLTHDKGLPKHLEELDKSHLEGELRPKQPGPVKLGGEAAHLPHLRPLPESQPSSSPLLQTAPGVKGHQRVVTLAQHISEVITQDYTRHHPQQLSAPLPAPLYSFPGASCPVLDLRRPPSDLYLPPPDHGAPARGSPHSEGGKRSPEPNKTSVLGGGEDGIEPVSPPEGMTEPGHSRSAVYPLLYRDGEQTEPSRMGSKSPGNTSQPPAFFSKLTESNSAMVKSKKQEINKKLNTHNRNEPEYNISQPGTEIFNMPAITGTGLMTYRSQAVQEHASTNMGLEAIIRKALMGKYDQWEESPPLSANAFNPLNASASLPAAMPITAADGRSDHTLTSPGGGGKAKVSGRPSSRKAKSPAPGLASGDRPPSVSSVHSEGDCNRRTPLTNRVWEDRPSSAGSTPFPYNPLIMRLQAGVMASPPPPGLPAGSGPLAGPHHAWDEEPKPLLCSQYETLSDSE
UniProt P19838: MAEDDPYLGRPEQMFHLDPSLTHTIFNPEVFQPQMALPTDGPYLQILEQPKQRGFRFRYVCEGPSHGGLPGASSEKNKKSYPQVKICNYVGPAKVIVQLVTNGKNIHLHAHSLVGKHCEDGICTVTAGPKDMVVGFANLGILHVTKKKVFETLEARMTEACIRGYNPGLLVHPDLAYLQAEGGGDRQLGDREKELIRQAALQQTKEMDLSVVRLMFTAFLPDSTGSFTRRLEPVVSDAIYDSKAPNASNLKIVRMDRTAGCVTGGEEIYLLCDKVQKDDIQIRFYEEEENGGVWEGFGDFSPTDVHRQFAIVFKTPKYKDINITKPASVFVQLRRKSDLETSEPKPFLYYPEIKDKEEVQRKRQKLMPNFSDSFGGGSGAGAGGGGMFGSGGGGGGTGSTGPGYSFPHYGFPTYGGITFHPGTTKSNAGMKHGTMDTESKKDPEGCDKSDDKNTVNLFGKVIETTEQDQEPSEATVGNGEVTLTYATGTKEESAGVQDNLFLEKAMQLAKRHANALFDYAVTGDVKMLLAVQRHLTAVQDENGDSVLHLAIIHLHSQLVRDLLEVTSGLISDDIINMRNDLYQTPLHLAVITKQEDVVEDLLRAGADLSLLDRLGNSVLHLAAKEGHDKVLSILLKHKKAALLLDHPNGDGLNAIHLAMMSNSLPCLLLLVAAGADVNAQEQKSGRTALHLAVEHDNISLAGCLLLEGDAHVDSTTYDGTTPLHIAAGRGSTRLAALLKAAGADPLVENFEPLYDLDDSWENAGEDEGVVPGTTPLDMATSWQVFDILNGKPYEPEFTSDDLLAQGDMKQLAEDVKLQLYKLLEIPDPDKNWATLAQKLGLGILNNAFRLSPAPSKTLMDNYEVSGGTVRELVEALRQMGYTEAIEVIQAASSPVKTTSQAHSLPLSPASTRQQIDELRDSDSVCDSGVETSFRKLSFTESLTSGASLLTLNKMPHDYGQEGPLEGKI

Key:
[1] = target: NCOR2 (SMRT) (human (endogenous in MCF-7)) (UniProt Q9Y618); experiment: co-IP; anti-NCOR2 immunoprecipitation from MCF-7 lysate (IP buffer: 20 mM Tris-Cl pH 7.4, 150 mM NaCl, 5 mM MgCl2, 0.5% NP-40, 10% glycerol), Protein A/G agarose, Western blot; IgG as negative control
[2] = target: NCOR2 (SMRT) (human (endogenous in MCF-7)) (UniProt Q9Y618); experiment: co-IP; anti-NCOR2 immunoprecipitation from MCF-7 with overexpression of BQ, Western blot of the immunoprecipitate

Substance: NF-κB p50–p65 heterodimer (from UniProt P19838 1-433; Q04206 1-551) (complex)
- binding [1]: binds
- binding [2]: binds
